Results from PubChem BioAssay AID190 (DTP/NCI, 2004).
The list is a part of this screen's results and no random one: it gathers tests that were run many times, whatever their T/C, doses with no T/C, and many T/C values between a quarter and a half above the control. Other doses and runs of a compound stand elsewhere. T/C: endpoint of the treated group in % of that of the vehicle group. Some entries give survivors of the animals treated and no T/C: the source files T/C as zero there, which appears to mark a toxic dose or a test without result, not a measured value. Some doses without a T/C left all or most animals alive at the check, yet need not have been tolerated: survival well below the control is almost never listed, so the zero probably covers shortened survival too. Counts of survivors are from the toxicity check (mostly the fifth day) where no day follows; animals may have died later. Schedule codes are those of the source, read here as Q, the interval in days (D) or hours (H), X, the number of doses. Some doses were run more than once; the values are given in rising order. Where survival is the endpoint, this PubChem deposit counts one and a half times the control or more as active, and values a quarter to a half above the control carry no call in these data; other NCI protocols may use other cut-offs. Counts like (3×) stand for listed records that agree. Some T/C values are followed by the survivors on the day toxicity was checked, most often the fifth; without a count, all were alive then.

Tested on: AKR/Lw mice, AKR lymphoma ip, median survival T/C
Assay: NCI In Vivo Anticancer Drug Screen. Data for tumor model Lymphoma AKR (Transplanted) (intraperitoneal) in AKR/Lw mice
Settings: T/C endpoint: median survival time, higher T/C = longer survival
Procedure: The antitumor activity of compounds was measured in mice bearing transplantable tumors. Survival or tumor size were measured and the results are expressed as the measurement made in the treated group (T) divided by the measurement made in the vehicle treated control group (C). The tumor model used in this assay is Lymphoma AKR (Transplanted) (intraperitoneal) in AKR/Lw mice

[1] = dose: 25.0 mg/kg/injection, schedule: Q01DX001 (ip), vehicle: saline
[2] = dose: 50.0 mg/kg/injection, schedule: Q01DX001 (ip), vehicle: saline
[3] = dose: 100.0 mg/kg/injection, schedule: Q01DX001 (ip), vehicle: saline
[4] = dose: 200.0 mg/kg/injection, schedule: Q01DX001 (ip), vehicle: saline
[5] = dose: 400.0 mg/kg/injection, schedule: Q01DX001 (ip), vehicle: saline
[6] = dose: 400.0 mg/kg/injection, schedule: Q01DX001 (ip), vehicle: Klucel (hydroxypropylcellulose) (HPC)
[7] = dose: 31.25 mg/kg/injection, schedule: Q06HX004 (ip), vehicle: saline
[8] = dose: 40.0 mg/kg/injection, schedule: Q06HX016 (ip), vehicle: Klucel (hydroxypropylcellulose) (HPC)
[9] = dose: 50.0 mg/kg/injection, schedule: Q06HX016 (ip), vehicle: Klucel (hydroxypropylcellulose) (HPC)
[10] = dose: 60.0 mg/kg/injection, schedule: Q06HX016 (ip), vehicle: Klucel (hydroxypropylcellulose) (HPC)
[11] = dose: 100.0 mg/kg/injection, schedule: Q01DX001 (ip), vehicle: saline with Tween-80

Q: Which survivor count (dose: 2.0 mg/kg/injection, schedule: Q01DX009 (ip), vehicle: saline) does the source give for `O=[N+]([O-])O.[Ga]` here?
A: Its survivor count is 10 of 10.

Q: And the survivor count (dose: 2.5 mg/kg/injection, schedule: Q01DX001 (ip), vehicle: saline)?
A: Its survivor count is 10 of 10.

Q: What about the survivor count (dose: 4.0 mg/kg/injection, schedule: Q01DX009 (ip), vehicle: saline) of the same compound?
A: The survivor count was 9 of 10.

Q: And the survivor count (dose: 5.0 mg/kg/injection, schedule: Q01DX001 (ip), vehicle: saline)?
A: Its survivor count is 10 of 10.

Q: What about the survivor count (dose: 12.5 mg/kg/injection, schedule: Q01DX001 (ip), vehicle: saline) of the same compound?
A: The survivor count was 10 of 10.

Q: And the survivor count (dose: 15.0 mg/kg/injection, schedule: Q01DX009 (ip), vehicle: saline)?
A: Its survivor count is 10 of 10.

Q: What about the T/C [1] of the same compound?
A: Its T/C is 90, 92, 94, 105 % of control.

Q: What about the survivor count [1] of the same compound?
A: The survivor count was 10 of 10.

Q: And the survivor count (dose: 25.0 mg/kg/injection, schedule: Q04DX003 (ip), vehicle: saline)?
A: The survivor count was 10 of 10.

Q: And the survivor count (dose: 30.0 mg/kg/injection, schedule: Q01DX009 (ip), vehicle: saline)?
A: Its survivor count is 10 of 10.

Q: What about the survivor count (dose: 40.0 mg/kg/injection, schedule: Q01DX009 (ip), vehicle: saline) of the same compound?
A: Its survivor count is 10 of 10.

Q: What about the T/C [2] of the same compound?
A: The T/C was 94, 97, 115 % of control.

Q: And the survivor count [2]?
A: The survivor count was 10 of 10.

Q: And the survivor count (dose: 50.0 mg/kg/injection, schedule: Q04DX003 (ip), vehicle: saline)?
A: Its survivor count is 10 of 10.

Q: And the T/C [3]?
A: Its T/C is 90, 91 [9 of 10 alive], 109, 118 % of control.

Q: And the survivor count [3]?
A: The survivor count was 9 of 10 and 10 of 10.

Q: And the survivor count (dose: 100.0 mg/kg/injection, schedule: Q01DX009 (ip), vehicle: saline)?
A: The survivor count was 5 of 10.

Q: What about the survivor count (dose: 100.0 mg/kg/injection, schedule: Q04DX003 (ip), vehicle: saline) of the same compound?
A: The survivor count was 9 of 10 and 10 of 10.

Q: And the T/C (dose: 128.0 mg/kg/injection, schedule: Q04DX003 (ip), vehicle: water)?
A: The T/C was 125 % of control.

Q: What about the T/C [4] of the same compound?
A: Its T/C is 95 (2×) and 110 % of control [9 of 10 alive].

Q: What about the survivor count [4] of the same compound?
A: The survivor count was 9 of 10 and 10 of 10.

Q: What about the survivor count (dose: 200.0 mg/kg/injection, schedule: Q01DX009 (ip), vehicle: saline) of the same compound?
A: Its survivor count is 1 of 10.

Q: And the survivor count (dose: 200.0 mg/kg/injection, schedule: Q04DX003 (ip), vehicle: saline)?
A: Its survivor count is 10 of 10.

Q: What about the survivor count (dose: 256.0 mg/kg/injection, schedule: Q04DX003 (ip), vehicle: water) of the same compound?
A: The survivor count was 10 of 10.

Q: What about the T/C [5] of the same compound?
A: Its T/C is 87 [7 of 10 alive], 90 [9 of 10 alive], 100 [9 of 10 alive], 113 % of control.

Q: What about the survivor count [5] of the same compound?
A: The survivor count was 7 of 10 and 9 of 10.

Q: What about the survivor count (dose: 400.0 mg/kg/injection, schedule: Q04DX003 (ip), vehicle: saline) of the same compound?
A: The survivor count was 5 of 10.

Q: And the survivor count (dose: 600.0 mg/kg/injection, schedule: Q01DX001 (ip), vehicle: saline)?
A: The survivor count was 2 of 10 and 6 of 10.

Q: Which survivor count (dose: 12.5 mg/kg/injection, schedule: Q01DX009 (ip), vehicle: other) does the source give for `CO[C@H]1/C=C/O[C@@]2(C)Oc3c(C)c(O)c4c(O)c(c(/C=N/N5C(C)CN(Cc6ccccc6)CC5C)c(O)c4c3C2=O)NC(=O)/C(C)=C\C=C\[C@H](C)[C@H](O)[C@@H](C)[C@@H](O)[C@@H](C)[C@H](OC(C)=O)[C@@H]1C` (stereo partly specified) here?
A: Its survivor count is 7 of 10.

Q: And the survivor count (dose: 25.0 mg/kg/injection, schedule: Q01DX009 (ip), vehicle: other)?
A: The survivor count was 6 of 10.

Q: And the survivor count (dose: 50.0 mg/kg/injection, schedule: Q01DX009 (ip), vehicle: other)?
A: Its survivor count is 7 of 10.

Q: And the survivor count (dose: 100.0 mg/kg/injection, schedule: Q01DX009 (ip), vehicle: other)?
A: The survivor count was 7 of 10.

Q: And the survivor count (dose: 200.0 mg/kg/injection, schedule: Q01DX009 (ip), vehicle: other)?
A: The survivor count was 0 of 10.

Q: And the survivor count (dose: 400.0 mg/kg/injection, schedule: Q01DX009 (ip), vehicle: other)?
A: The survivor count was 0 of 10.

Q: `COc1cc2c(c3c1c(=O)c1ccccc1n3C)C=CC(C)(C)O2` was tested. Which survivor count (dose: 125.0 mg/kg/injection, schedule: Q01DX010 (ip), vehicle: Klucel (hydroxypropylcellulose) (HPC)) did it give?
A: The survivor count was 10 of 10.

Q: And the T/C (dose: 200.0 mg/kg/injection, schedule: Q04DX003 (ip), vehicle: Klucel (hydroxypropylcellulose) (HPC))?
A: The T/C was 125 % of control.

Q: And the survivor count (dose: 250.0 mg/kg/injection, schedule: Q01DX010 (ip), vehicle: Klucel (hydroxypropylcellulose) (HPC))?
A: Its survivor count is 9 of 10.

Q: And the survivor count (dose: 250.0 mg/kg/injection, schedule: Q03HX024 (ip), vehicle: Klucel (hydroxypropylcellulose) (HPC))?
A: The survivor count was 6 of 10.

Q: And the survivor count (dose: 500.0 mg/kg/injection, schedule: Q01DX010 (ip), vehicle: Klucel (hydroxypropylcellulose) (HPC))?
A: Its survivor count is 0 of 10.

Q: What about the T/C (dose: 540.0 mg/kg/injection, schedule: Q04DX003 (ip), vehicle: Klucel (hydroxypropylcellulose) (HPC)) of the same compound?
A: The T/C was 125 % of control.

Q: What about the T/C (dose: 800.0 mg/kg/injection, schedule: Q04DX003 (ip), vehicle: Klucel (hydroxypropylcellulose) (HPC)) of the same compound?
A: Its T/C is 127 % of control [9 of 10 alive].

Q: With `COC(=O)C1CC(=O)C2(C)CCc3c(ccc4cc(OC)ccc34)C12` (stereo unspecified) as the compound, how does the survivor count (dose: 400.0 mg/kg/injection, schedule: Q01DX001 (sc), vehicle: steroid suspending solution) read?
A: The survivor count was 10 of 10.

Q: For `c1ccc(C[N+](Cc2ccccc2)=C2CCCCC2)cc1`, which survivor count [5] is on record?
A: Its survivor count is 0 of 10.

Q: `CC(=O)CC(=O)c1ccccc1.CC(=O)CC(=O)c1ccccc1.CC(=O)CC(=O)c1ccccc1.[Co]` was tested. Which survivor count (dose: 100.0 mg/kg/injection, schedule: Q01DX001 (ip), vehicle: Klucel (hydroxypropylcellulose) (HPC)) did it give?
A: The survivor count was 4 of 10.

Q: What about the survivor count (dose: 200.0 mg/kg/injection, schedule: Q01DX001 (ip), vehicle: Klucel (hydroxypropylcellulose) (HPC)) of the same compound?
A: Its survivor count is 2 of 10.

Q: And the survivor count [6]?
A: The survivor count was 0 of 10.

Q: With `C=CCN(CC=C)c1ccc(N(CC)CC)cc1` as the compound, how does the survivor count [6] read?
A: Its survivor count is 5 of 10.

Q: What does the source list for `NC(=S)N/N=C/c1ccc(O)cn1`?
A: T/C (dose: 1.5 mg/kg/injection, schedule: Q01DX009 (ip), vehicle: Klucel (hydroxypropylcellulose) (HPC)): 143 % of control; T/C (dose: 6.25 mg/kg/injection, schedule: Q01DX009 (ip), vehicle: Klucel (hydroxypropylcellulose) (HPC)): 130 % of control; T/C (dose: 12.5 mg/kg/injection, schedule: Q01DX009 (ip), vehicle: Klucel (hydroxypropylcellulose) (HPC)): 140 % of control; T/C (dose: 20.0 mg/kg/injection, schedule: Q06HX016 (ip), vehicle: Klucel (hydroxypropylcellulose) (HPC)): 100, 112 (2×), 125 % of control; T/C (dose: 25.0 mg/kg/injection, schedule: Q01DX009 (ip), vehicle: Klucel (hydroxypropylcellulose) (HPC)): 126 % of control; T/C (dose: 30.0 mg/kg/injection, schedule: Q06HX012 (ip), vehicle: Klucel (hydroxypropylcellulose) (HPC)): 134 % of control; T/C (dose: 30.0 mg/kg/injection, schedule: Q06HX016 (ip), vehicle: Klucel (hydroxypropylcellulose) (HPC)): 106, 112, 131, 146 % of control; T/C [7]: 138 % of control; survivor count [7]: 9 of 10; survivor count (dose: 31.25 mg/kg/injection, schedule: Q06HX008 (ip), vehicle: saline): 5 of 10; T/C [8]: 87, 109, 125 % of control; survivor count [8]: 10 of 10; T/C [9]: 92 [9 of 10 alive] and 106 % of control; survivor count [9]: 9 of 10 and 10 of 10; T/C [10]: 118 % of control (2×); survivor count [10]: 10 of 10; survivor count (dose: 62.5 mg/kg/injection, schedule: Q06HX004 (ip), vehicle: saline): 9 of 10 and 10 of 10; survivor count (dose: 100.0 mg/kg/injection, schedule: Q01DX009 (ip), vehicle: Klucel (hydroxypropylcellulose) (HPC)): 10 of 10; survivor count (dose: 125.0 mg/kg/injection, schedule: Q06HX004 (ip), vehicle: saline): 7 of 10, 8 of 10, 10 of 10; survivor count (dose: 125.0 mg/kg/injection, schedule: Q06HX016 (ip), vehicle: saline): 8 of 10; survivor count (dose: 200.0 mg/kg/injection, schedule: Q01DX009 (ip), vehicle: Klucel (hydroxypropylcellulose) (HPC)): 10 of 10; survivor count (dose: 400.0 mg/kg/injection, schedule: Q04DX003 (ip), vehicle: Klucel (hydroxypropylcellulose) (HPC)): 8 of 10

Q: Which T/C [11] does the source give for `COc1cccc(CNc2cccc(Cl)c2Cl)c1OC` here?
A: Its T/C is 126 % of control.

Q: What about the survivor count [11] of the same compound?
A: Its survivor count is 10 of 10.
